Experimental data from PubChem BioAssay AID1671190 (National Center for Advancing Translational Sciences (NCATS), 2021).
Several values for one entry are separate records, joined by “and”; a condition that tells them apart may be missing. Identical values can stand only once. Screen size: about 580,000 compounds; about 6,100 (1.1%) were called active. This list was built around the results that the source calls inconclusive (neither active nor inactive); the mix of calls is not that of the screen. The call rests on the fitted dose curve; in most records, active means well fitted inhibition curve with a large enough effect; inconclusive means small, poorly fitted or top-dose-only effect, or another doubt; inactive means no such curve, though single readings can be large or run the other way. Potencies beside an inconclusive call are fits to weak or partial responses and may not hold up.

The chains behind the UniProt entries cited, without tags or fusion partners. Where a name states a change or a piece, a line headed by the entry shows the natural chain unless it says otherwise.
UniProt P18054: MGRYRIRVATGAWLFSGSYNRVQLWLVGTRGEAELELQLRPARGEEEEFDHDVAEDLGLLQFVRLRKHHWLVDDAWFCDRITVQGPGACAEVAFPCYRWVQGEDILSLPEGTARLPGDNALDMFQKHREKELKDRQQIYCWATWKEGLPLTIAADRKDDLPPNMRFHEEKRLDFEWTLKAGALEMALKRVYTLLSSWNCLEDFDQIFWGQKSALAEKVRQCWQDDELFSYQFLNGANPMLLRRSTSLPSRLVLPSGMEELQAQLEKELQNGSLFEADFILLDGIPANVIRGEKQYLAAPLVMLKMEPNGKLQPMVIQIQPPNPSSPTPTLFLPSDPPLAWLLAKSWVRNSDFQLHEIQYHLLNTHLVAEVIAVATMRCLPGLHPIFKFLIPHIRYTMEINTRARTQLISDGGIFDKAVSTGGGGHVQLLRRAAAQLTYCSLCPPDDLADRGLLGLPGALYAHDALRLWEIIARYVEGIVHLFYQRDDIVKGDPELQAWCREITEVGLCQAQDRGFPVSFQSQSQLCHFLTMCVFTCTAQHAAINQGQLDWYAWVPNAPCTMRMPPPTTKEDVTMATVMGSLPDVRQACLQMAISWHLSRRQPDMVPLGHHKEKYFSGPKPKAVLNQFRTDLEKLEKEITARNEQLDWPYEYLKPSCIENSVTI

These compounds were tested against Polyunsaturated fatty acid lipoxygenase ALOX12 (Homo sapiens) (UniProt P18054) (assay: Primary qHTS assay for inhibitors of human arachidonate 12S-lipoxygenase (ALOX12): Round 2). Details: purified 12hLO, xylenol orange hydroperoxide absorbance; activity change, negative = inhibition: at 108 µM (top of the series) unless noted.
Summary of the method: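 Hydroperoxide product was detected by ferrous iron/xylenol orange as the 573 to 405 nm absorbance ratio. Arachidonic acid at 40 uM (final) was turned over for 30 min at room temperature by 150 nM human 12hLO, pH 7.0 Hepes buffer, after 15 min compound preincubation.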
On the % scale 0 is the no-effect control and ±100 the full control effect; potency means the concentration at half of the fitted maximal effect.

| SMILES | Potency | activity change, negative = inhibition |
| --- | --- | --- |
| O=C(NCCc1ccccc1)OCc1ccccc1 | inconclusive: 0.0282 µM [inhibitor, full curve, poor fit] |  |
| N/C(=N\OC(=O)c1ccc(Br)cc1)c1cccc([N+](=O)[O-])c1 | inconclusive: 50.1 µM [inhibitor, partial curve, poor fit] |  |
| CC1CN(C(=O)c2cc(-c3ccc(Cl)s3)nc3ccccc23)CC(C)O1 (stereo unspecified) | inconclusive: 35.5 µM [inhibitor, partial curve, poor fit] |  |
| N#CCN1C(=O)C2CCCN2c2ccc(S(=O)(=O)N3CCOCC3)cc21 (stereo unspecified) | inactive |  |
| c1ccc(SCCN2CCN(c3ccccc3)CC2)cc1 | active: 12.6 µM |  |
| C/C=C(\C)CN1CCN(c2cc(C)ccc2C)CC1 | inconclusive: 1.41 µM [inhibitor, full curve, poor fit] |  |
| COc1cc(NC(=O)CSc2ccc3c(c2)OCCO3)cc(OC)c1OC | inconclusive: 100 µM [inhibitor, single point] |  |
| O=C(O)CNCc1cccnc1 | inconclusive: 5.01 µM [inhibitor, full curve, poor fit] |  |
| CCOc1ccc(C2NC(=S)NC3=C2CCc2ccccc23)cc1 (stereo unspecified) | inconclusive: 50.1 µM [inhibitor, partial curve, poor fit] |  |
| COc1ccc(Br)cc1CNC(=O)Cc1c(C(=O)O)[nH]c2ccc(Cl)cc12 | inconclusive: 44.7 µM [inhibitor, partial curve, poor fit] |  |
| NC(=O)C1CCN(C(=O)c2cc(C3CC3)nc3ccccc23)CC1 | inactive |  |
| Cc1cccc(NC(=O)CSc2nc3c(cc2C#N)CCCC3)c1 | inactive |  |
| CS/C(=N/S(=O)(=O)c1ccc(C)cc1)c1ccccc1 | inactive |  |
| O=C(N/N=C\c1c(O)ccc2ccccc12)c1ccc(O)cc1 | inconclusive: 39.8 µM [inhibitor, partial curve, poor fit] |  |
| CCn1cc(CN2CCN(C(=O)c3ccoc3)CC2)ccc1=O | inactive |  |
| COc1ccccc1CNS(=O)(=O)c1cc(-c2cc(C)no2)ccc1C | inconclusive: 141 µM [inhibitor, partial curve, poor fit] |  |
| Cc1noc(C)c1-c1ccc2ncnc(NCCN3CCOCC3)c2c1 | inconclusive: 4.47 µM [inhibitor, full curve, poor fit] |  |
| Cc1cc(C)c(NC(=O)CNC(=O)c2ccc3ncsc3c2)c(C)c1 | inconclusive: 39.8 µM [inhibitor, partial curve, poor fit] |  |
| c1cc(CNCC2CCCO2)c2cc[nH]c2c1 (stereo unspecified) | inconclusive: 50.1 µM [inhibitor, partial curve, poor fit] |  |
| Cc1ccc(-c2ocnc2C(=O)Nc2ccccc2C)s1 | inconclusive: 25.1 µM [inhibitor, full curve, poor fit] |  |
| CCn1cc(/C=C(\NC(=O)c2ccco2)C(=O)NCCN2CCOCC2)c2ccccc21 | inconclusive: 44.7 µM [inhibitor, partial curve] |  |

| SMILES | Potency | activity change, negative = inhibition |
| --- | --- | --- |
| Cc1ccc2cc(CN(CCc3ccccc3)C(=S)NCCCN(C)C)c(=O)[nH]c2c1 | inconclusive: 79.4 µM [inhibitor, partial curve, poor fit] |  |
| O=C(O)C(Cc1ccccc1)C(C(=O)O)c1ccccc1 (stereo unspecified) | inactive |  |
| CN(C)C(CNc1ccc(C(F)(F)F)cc1[N+](=O)[O-])c1ccccc1 (stereo unspecified) | inconclusive: 89.1 µM [inhibitor, partial curve, poor fit] |  |
| O=C(NCc1ccccc1F)c1cccc(NC(=O)N2CCSc3ncccc32)c1 | inconclusive: 126 µM [inhibitor, partial curve, poor fit] |  |
| CC(C)(C)OC(=O)NC(CN)c1ccccc1Cl (stereo unspecified) |  | inactive: 20.1% [at 12.5 µM] |
| Cn1c(=O)c2c(nc(NC(Cc3ccccc3)C(=O)O)n2Cc2ccccc2)n(C)c1=O (stereo unspecified) | inconclusive: 44.7 µM [inhibitor, partial curve, poor fit] |  |
| CC(C)CC1NC(=O)N(Cc2coc(-c3ccccc3)n2)C1=O (stereo unspecified) | inconclusive: 70.8 µM [inhibitor, partial curve, poor fit] |  |
| O=C(C1CCCN(S(=O)(=O)c2cccs2)C1)N1CCN(C2CCCCC2)CC1 (stereo unspecified) | inconclusive: 63.1 µM [inhibitor, partial curve, poor fit] |  |
| Cc1ccc(Nc2nc(CSc3nnc4n3CCCCC4)cs2)cc1 | inconclusive: 50.1 µM [inhibitor, partial curve, poor fit] |  |
| COc1ccccc1-c1ccc2ncnc(N3CCNCC3)c2c1 | inconclusive: 3.98 µM [inhibitor, full curve, poor fit] |  |
| COc1ccccc1N1CCN(CCCN2C(=O)C3CCCN3C2=O)CC1 (stereo unspecified) | inconclusive: 39.8 µM [inhibitor, partial curve, poor fit] |  |
| CCCCC(c1nnnn1C(C)C)N1CCN(C(=O)c2ccco2)CC1 (stereo unspecified) | inconclusive: 39.8 µM [inhibitor, partial curve] |  |
| CN1CCCN(S(=O)(=O)c2cccc(Cl)c2)c2ccccc21 | inconclusive: 35.5 µM [inhibitor, partial curve] |  |
| Cc1ccc(S(=O)(=O)NCC2CCC(C(=O)N[C@H](C)C(=O)N3CCc4ccccc4C3)CC2)cc1 (stereo partly specified) | inconclusive: 14.1 µM [inhibitor, partial curve] |  |
| COc1ccc2nc(SCC(=O)N3N=C(c4cccs4)CC3c3ccco3)[nH]c2c1 (stereo unspecified) | inconclusive: 44.7 µM [inhibitor, partial curve, poor fit] |  |
| CC(C)N(Cc1cnn(C)c1)S(=O)(=O)c1ccc(Cl)cc1F | inactive |  |
| COc1cc(C2C3=C(COC3=O)Oc3cc4c(cc32)OCO4)cc(OC)c1OC (stereo unspecified) | inactive |  |
| CS(=O)(=O)N1N=C(c2ccco2)CC1c1ccc(Cl)cc1 (stereo unspecified) | inconclusive: 44.7 µM [inhibitor, partial curve, poor fit] |  |
| CC1(c2ccccc2)OC(C(=O)O)=CC1=O (stereo unspecified) | inconclusive: 39.8 µM [inhibitor, partial curve, poor fit] and inconclusive: 11.4 µM [inhibitor, single point] |  |
| CN(C)c1ccc(C(=O)N2Cc3[nH]cnc3CC2C(=O)O)cn1 (stereo unspecified) | inconclusive: 15.8 µM [inhibitor, full curve, poor fit] |  |
